The numbers were not newly measured in patent publication US8883203B2, “Solid oral dosage form containing an enhancer” (Merrion Research III Limited, priority 2006, dated 2014), which cites them from elsewhere.

The conditions of this series: in vivo; cited from earlier work.

Take `NCCCC(O)(P(=O)(O)O)P(=O)(O)O` [alendronate, Alendronate monosodium trihydrate]: the “impairment of absorption by coffee or orange juice” value is reported as at least 60%.
